No constants are given. Whether binding was seen depends on the method and setting. Binding seen in cells or lysates may run through a third protein. A result given as binding can be weak or reduced; the word gives no strength. Tags and fused reporters may be left off the sequences shown.
Molecular target: 6x-His full-length CED-4S, wild type (C. elegans)
Experiment: pull-down; GST-CED-9[1-251] and 6x-His CED-4S coexpressed in E. coli BL21(DE3); lysate normalised to CED-4 bound to Ni-NTA resin, 4°C, 2 hours; 25 mM Tris pH 8.0, 300 mM NaCl, 2 mM DTT, 25 mM imidazole wash; Western blot with anti-His and anti-GST; the results call it coimmunoprecipitation

binding: binds
B1: GST-CED-9[1-251], wild type (domain or fragment, UniProt P41958 1-251)
chain: MTRCTADNSLTNPAYRRRTMATGEMKEFLGIKGTEPTDFGINSDAQDLPSPSRQASTRRMSIGESIDGKINDWEEPRLDIEGFVVDYFTHRIRQNGMEWFGAPGLPCGVQPEHEMMRVMGTIFEKKHAENFETFCEQLLAVPRISFSLYQDVVRTVGNAQTDQCPMSYGRLIGLISFGGFVAAKMMESVELQGQVRNLFVYTSLFIKTRIRNNWKEHNRSWDDFMTLGKQMKEDYERAEAEKVGRRKQNRR

— article PMC11817491
